Test results published in paper PMC5038948, “The Role of Neutrophil Proteins on the Amyloid Beta-RAGE Axis” (PLoS ONE, 2016).
Results are given in words; binding and its absence hold for the method and conditions named. Some results given as binding are weak or reduced against the parent protein; the word gives no strength.

The chains behind the UniProt entries cited, without tags or fusion partners. Where a name states a change or a piece, a line headed by the entry shows the natural chain unless it says otherwise. Residues count along the entry.
UniProt P02769, residues 25-607: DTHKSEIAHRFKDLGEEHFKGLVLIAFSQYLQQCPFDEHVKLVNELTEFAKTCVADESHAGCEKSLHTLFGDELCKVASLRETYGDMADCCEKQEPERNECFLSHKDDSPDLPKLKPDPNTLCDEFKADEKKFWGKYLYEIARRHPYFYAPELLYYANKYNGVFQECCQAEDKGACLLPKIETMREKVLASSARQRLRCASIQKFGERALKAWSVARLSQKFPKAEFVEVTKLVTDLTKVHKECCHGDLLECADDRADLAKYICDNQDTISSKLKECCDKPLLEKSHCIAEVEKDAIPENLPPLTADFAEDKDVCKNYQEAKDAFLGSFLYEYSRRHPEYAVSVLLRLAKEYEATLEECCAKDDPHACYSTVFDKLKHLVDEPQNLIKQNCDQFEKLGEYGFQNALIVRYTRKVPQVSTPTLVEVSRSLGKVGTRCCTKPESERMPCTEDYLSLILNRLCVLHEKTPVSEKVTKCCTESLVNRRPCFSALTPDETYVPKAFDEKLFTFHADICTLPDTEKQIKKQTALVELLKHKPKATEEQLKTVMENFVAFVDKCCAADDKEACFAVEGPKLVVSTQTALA
UniProt Q15109, residues 23-342: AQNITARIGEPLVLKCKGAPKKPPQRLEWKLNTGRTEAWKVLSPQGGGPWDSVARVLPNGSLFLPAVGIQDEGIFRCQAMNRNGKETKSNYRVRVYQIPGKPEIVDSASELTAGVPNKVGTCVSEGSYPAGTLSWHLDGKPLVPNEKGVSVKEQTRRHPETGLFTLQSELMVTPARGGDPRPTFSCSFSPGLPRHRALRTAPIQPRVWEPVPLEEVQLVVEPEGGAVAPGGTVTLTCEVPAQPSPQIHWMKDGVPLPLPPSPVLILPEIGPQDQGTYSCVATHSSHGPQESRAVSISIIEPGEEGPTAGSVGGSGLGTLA

What was measured:
[1] = target: T1, cationic antimicrobial protein of 37kDa (CAP37) (human) (UniProt P20160); assay: far-Western, overlay or dot blot; 0.5 μg Aβ1-42 and 1 μg CAP37, neutrophil elastase, cathepsin G or BSA spotted on nitrocellulose; RAGE Fc chimera […] ([…]) overnight at 4°C, pre-incubated without or with GM-0111; detected with rabbit anti-RAGE; both purified
T1 sequence: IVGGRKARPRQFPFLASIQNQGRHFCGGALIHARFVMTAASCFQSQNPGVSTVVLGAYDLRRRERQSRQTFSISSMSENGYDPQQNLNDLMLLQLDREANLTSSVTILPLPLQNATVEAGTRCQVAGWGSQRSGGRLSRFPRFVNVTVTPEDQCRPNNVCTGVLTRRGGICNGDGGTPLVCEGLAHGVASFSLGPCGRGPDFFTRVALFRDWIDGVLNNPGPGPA

[2] = target: bovine serum albumin (BSA) (bovine) (UniProt P02769); assay: as above
[3] = target: bovine serum albumin (BSA) (bovine) (UniProt P02769); assay: ELISA; CAP37, neutrophil elastase, cathepsin G or Aβ1-42 (0.5 μg/well) or BSA (1000 μg/well) coated on Maxisorp plates in PBS pH 7.4; RAGE Fc chimera 0–[…] in PBST with 0.1% BSA, 37°C, 70 min; bound RAGE detected with goat anti-RAGE; BSA subtracted as background for KD; both purified

| binding [1] | binding [2] | binding [3] | Substance |
| --- | --- | --- | --- |
| binds |  |  | Recombinant human RAGE Fc chimera (from UniProt Q15109 23-342) (Fc fusion) |
|  | no binding (tested: 4.2 nM RAGE) | no binding (tested: 3.3 nM RAGE) | Recombinant human RAGE Fc chimera (from UniProt Q15109 23-342) (Fc fusion; other documents disagree on this pair) |
